Measurements reported in US11191272B2, “Oxadiazole compound or salts thereof, agricultural/horticultural fungicide containing said compound, and method for using same” (NIHON NOHYAKU CO., LTD., priority 2017, dated 2021).
Some results were stated once for a whole list of compounds, not compound by compound. Some compounds share one range, which may span the group rather than tell each member.

These compounds were tested on soybean rust (Phakopsora pachyrhizi) (assay: Fungicidal Efficacy Test for Soybean Rust). Conditions: treatment concentration of 50 ppm; foliage spray on potted soybeans (Enrei, 2-leaf stage) before spore inoculation; assessed after about 10 days in greenhouse.
Format: in vivo
In the case of `CCC(=O)NC(OC)c1ccc(-c2noc(C(F)(F)F)n2)cc1` (racemic) [1-7], the “control value (assessment criteria 0-10)” value was 8 (Control value 80-89%).
In the case of `CCCC(=O)NC(OCC)c1ccc(-c2noc(C(F)(F)F)n2)cc1` (racemic) [1-14], the “control value (assessment criteria 0-10)” value was 8 (Control value 80-89%).
`CCCC(=O)NC(OC(C)C)c1ccc(-c2noc(C(F)(F)F)n2)cc1` (racemic) [1-15] was tested, and the “control value (assessment criteria 0-10)” value was 8 (Control value 80-89%).
For `COC(NC(=O)C(C)C)c1ccc(-c2noc(C(F)(F)F)n2)cc1` (racemic) [1-22], the “control value (assessment criteria 0-10)” value was 8 (Control value 80-89%).
For `COC(NC(=O)C1CC1)c1ccc(-c2noc(C(F)(F)F)n2)cc1` (racemic) [1-25], the “control value (assessment criteria 0-10)” value was 8 (Control value 80-89%).
In the case of `CCCCC(=O)NC(OC)c1ccc(-c2noc(C(F)(F)F)n2)cc1` (racemic) [1-28], the “control value (assessment criteria 0-10)” value was 8 (Control value 80-89%).
`COC(NC(=O)C(C)(C)C)c1ccc(-c2noc(C(F)(F)F)n2)cc1` (racemic) [1-37] was tested, and the “control value (assessment criteria 0-10)” value was 8 (Control value 80-89%).
For `CC(C)OC(NC(=O)C(C)(C)C)c1ccc(-c2noc(C(F)(F)F)n2)cc1` (racemic) [1-39], the “control value (assessment criteria 0-10)” value was 8 (Control value 80-89%).
In the case of `CCCCCC(=O)NC(OC)c1ccc(-c2noc(C(F)(F)F)n2)cc1` (racemic) [1-40], the “control value (assessment criteria 0-10)” value was 8 (Control value 80-89%).
`C=CCC(=O)NC(OC)c1ccc(-c2noc(C(F)(F)F)n2)cc1` (racemic) [1-42] was tested, and the “control value (assessment criteria 0-10)” value was 8 (Control value 80-89%).
For `COC(NC(=O)c1ccccc1)c1ccc(-c2noc(C(F)(F)F)n2)cc1` (racemic) [1-43], the “control value (assessment criteria 0-10)” value was 8 (Control value 80-89%).
With `CCOC(=O)NC(OCC)c1ccc(-c2noc(C(F)(F)F)n2)cc1` (racemic) [1-44] the “control value (assessment criteria 0-10)” value was 8 (Control value 80-89%).
With `CCOC(NC(=O)OC(C)C)c1ccc(-c2noc(C(F)(F)F)n2)cc1` (racemic) [1-45] the “control value (assessment criteria 0-10)” value was 8 (Control value 80-89%).
For `COC(NC(=O)Cc1ccccc1)c1ccc(-c2noc(C(F)(F)F)n2)cc1` (racemic) [1-46], the “control value (assessment criteria 0-10)” value was 8 (Control value 80-89%).
With `COC(NC(=O)C(F)(F)F)c1ccc(-c2noc(C(F)(F)F)n2)cc1` (racemic) [1-47] the “control value (assessment criteria 0-10)” value was 8 (Control value 80-89%).
With `COC(NC(=O)N(C)C)c1ccc(-c2noc(C(F)(F)F)n2)cc1` (racemic) [1-48] the “control value (assessment criteria 0-10)” value was 8 (Control value 80-89%).
`COC(NC(=O)c1cccc2ccccc12)c1ccc(-c2noc(C(F)(F)F)n2)cc1` (racemic) [1-49] was tested, and the “control value (assessment criteria 0-10)” value was 8 (Control value 80-89%).
In the case of `COC(NC(=O)c1cccnc1)c1ccc(-c2noc(C(F)(F)F)n2)cc1` (racemic) [1-52], the “control value (assessment criteria 0-10)” value was 8 (Control value 80-89%).
For `COC(NC(=O)c1ccncc1)c1ccc(-c2noc(C(F)(F)F)n2)cc1` (racemic) [1-53], the “control value (assessment criteria 0-10)” value was 8 (Control value 80-89%).
In the case of `COC(NC(=O)c1ccccc1F)c1ccc(-c2noc(C(F)(F)F)n2)cc1` (racemic) [1-54], the “control value (assessment criteria 0-10)” value was 8 (Control value 80-89%).
`COC(NC(=O)c1cccc(F)c1)c1ccc(-c2noc(C(F)(F)F)n2)cc1` (racemic) [1-55] was tested, and the “control value (assessment criteria 0-10)” value was 8 (Control value 80-89%).
With `COC(NC(=O)c1ccc(F)cc1)c1ccc(-c2noc(C(F)(F)F)n2)cc1` (racemic) [1-56] the “control value (assessment criteria 0-10)” value was 8 (Control value 80-89%).
With `COC(NC(=O)c1ccccc1Cl)c1ccc(-c2noc(C(F)(F)F)n2)cc1` (racemic) [1-57] the “control value (assessment criteria 0-10)” value was 8 (Control value 80-89%).
With `COC(NC(=O)c1cccc(Cl)c1)c1ccc(-c2noc(C(F)(F)F)n2)cc1` (racemic) [1-58] the “control value (assessment criteria 0-10)” value was 8 (Control value 80-89%).
In the case of `COC(NC(=O)c1ccc(Br)cc1)c1ccc(-c2noc(C(F)(F)F)n2)cc1` (racemic) [1-62], the “control value (assessment criteria 0-10)” value was 8 (Control value 80-89%).
For `COC(NC(=O)c1ccc(C)cc1)c1ccc(-c2noc(C(F)(F)F)n2)cc1` (racemic) [1-68], the “control value (assessment criteria 0-10)” value was 8 (Control value 80-89%).
In the case of `COc1ccccc1C(=O)NC(OC)c1ccc(-c2noc(C(F)(F)F)n2)cc1` (racemic) [1-69], the “control value (assessment criteria 0-10)” value was 8 (Control value 80-89%).
With `COc1ccc(C(=O)NC(OC)c2ccc(-c3noc(C(F)(F)F)n3)cc2)cc1` (racemic) [1-71] the “control value (assessment criteria 0-10)” value was 8 (Control value 80-89%).
With `COC(NC(=O)c1c(F)cccc1F)c1ccc(-c2noc(C(F)(F)F)n2)cc1` (racemic) [1-78] the “control value (assessment criteria 0-10)” value was 8 (Control value 80-89%).
`COC(NC(=O)CCl)c1ccc(-c2noc(C(F)(F)F)n2)cc1` (racemic) [1-82] was tested, and the “control value (assessment criteria 0-10)” value was 8 (Control value 80-89%).
`COCC(=O)NC(OC)c1ccc(-c2noc(C(F)(F)F)n2)cc1` (racemic) [1-95] was tested, and the “control value (assessment criteria 0-10)” value was 8 (Control value 80-89%).
`COC(NC(=O)C(Cl)Cl)c1ccc(-c2noc(C(F)(F)F)n2)cc1` (racemic) [1-104] was tested, and the “control value (assessment criteria 0-10)” value was 8 (Control value 80-89%).
With `COC(NC(=O)C(Cl)(Cl)Cl)c1ccc(-c2noc(C(F)(F)F)n2)cc1` (racemic) [1-105] the “control value (assessment criteria 0-10)” value was 8 (Control value 80-89%).
With `COC(NC(=O)C(F)(F)C(F)(F)F)c1ccc(-c2noc(C(F)(F)F)n2)cc1` (racemic) [1-106] the “control value (assessment criteria 0-10)” value was 8 (Control value 80-89%).
In the case of `CC=CC(=O)NC(OC)c1ccc(-c2noc(C(F)(F)F)n2)cc1` (racemic) [1-107], the “control value (assessment criteria 0-10)” value was 8 (Control value 80-89%).
In the case of `COC(NC(=O)C(F)F)c1ccc(-c2noc(C(F)(F)F)n2)cc1` (racemic) [1-108], the “control value (assessment criteria 0-10)” value was 8 (Control value 80-89%).
In the case of `COC(NC(=O)C(F)(F)Br)c1ccc(-c2noc(C(F)(F)F)n2)cc1` (racemic) [1-109], the “control value (assessment criteria 0-10)” value was 8 (Control value 80-89%).
With `C#CC(=O)NC(OC)c1ccc(-c2noc(C(F)(F)F)n2)cc1` (racemic) [1-110] the “control value (assessment criteria 0-10)” value was 8 (Control value 80-89%).
`COC(NC(=O)C1CCCC1)c1ccc(-c2noc(C(F)(F)F)n2)cc1` (racemic) [1-111] was tested, and the “control value (assessment criteria 0-10)” value was 8 (Control value 80-89%).
For `CCOC(=O)NC(OC)c1ccc(-c2noc(C(F)(F)F)n2)c(F)c1` (racemic) [1-112], the “control value (assessment criteria 0-10)” value was 8 (Control value 80-89%).
`CCCC(=O)NC(OC)c1ccc(-c2noc(C(F)(F)F)n2)c(F)c1` (racemic) [1-113] was tested, and the “control value (assessment criteria 0-10)” value was 8 (Control value 80-89%).
For `COC(NC(=O)c1ccccc1)c1ccc(-c2noc(C(F)(F)F)n2)c(F)c1` (racemic) [1-114], the “control value (assessment criteria 0-10)” value was 8 (Control value 80-89%).
For `COC(NC(=O)C(F)(F)F)c1ccc(-c2noc(C(F)(F)F)n2)c(F)c1` (racemic) [1-115], the “control value (assessment criteria 0-10)” value was 8 (Control value 80-89%).
With `CCCC(=O)NC(OC)c1ccc(-c2noc(C(F)(F)F)n2)cc1F` (racemic) [1-129] the “control value (assessment criteria 0-10)” value was 8 (Control value 80-89%).
`COC(NC(=O)c1ccccc1)c1ccc(-c2noc(C(F)(F)F)n2)cc1F` (racemic) [1-130] was tested, and the “control value (assessment criteria 0-10)” value was 8 (Control value 80-89%).
With `COC(NC(=O)C1CCOCC1)c1ccc(-c2noc(C(F)(F)F)n2)cc1` (racemic) [1-140] the “control value (assessment criteria 0-10)” value was 8 (Control value 80-89%).
`COCCC(=O)NC(OC)c1ccc(-c2noc(C(F)(F)F)n2)cc1` (racemic) [1-141] was tested, and the “control value (assessment criteria 0-10)” value was 8 (Control value 80-89%).
In the case of `CCOCCC(=O)NC(OC)c1ccc(-c2noc(C(F)(F)F)n2)cc1` (racemic) [1-142], the “control value (assessment criteria 0-10)” value was 8 (Control value 80-89%).
`CCOC(NC(=O)COC)c1ccc(-c2noc(C(F)(F)F)n2)cc1` (racemic) [1-143] was tested, and the “control value (assessment criteria 0-10)” value was 8 (Control value 80-89%).
For `COCC(=O)NC(OC)c1ccc(-c2noc(C(F)(F)F)n2)cc1C` (racemic) [1-144], the “control value (assessment criteria 0-10)” value was 8 (Control value 80-89%).
`COCC(=O)NC(OC)c1ccc(-c2noc(C(F)(F)F)n2)c(F)c1` (racemic) [1-145] was tested, and the “control value (assessment criteria 0-10)” value was 8 (Control value 80-89%).
In the case of `COCC(=O)NC(OC)c1ccc(-c2noc(C(F)(F)F)n2)cc1F` (racemic) [1-146], the “control value (assessment criteria 0-10)” value was 8 (Control value 80-89%).
With `CCC(=O)NC(OC)c1ccc(-c2noc(C(F)(F)F)n2)cc1F` (racemic) [1-147] the “control value (assessment criteria 0-10)” value was 8 (Control value 80-89%).
In the case of `COC(NC(=O)C(C)C)c1ccc(-c2noc(C(F)(F)F)n2)cc1F` (racemic) [1-148], the “control value (assessment criteria 0-10)” value was 8 (Control value 80-89%).
In the case of `COC(NC(=O)C1CC1)c1ccc(-c2noc(C(F)(F)F)n2)cc1F` (racemic) [1-149], the “control value (assessment criteria 0-10)” value was 8 (Control value 80-89%).
`COC(NC(=O)C(C)(C)C)c1ccc(-c2noc(C(F)(F)F)n2)cc1F` (racemic) [1-150] was tested, and the “control value (assessment criteria 0-10)” value was 8 (Control value 80-89%).
In the case of `C#CC(=O)NC(OC)c1ccc(-c2noc(C(F)(F)F)n2)cc1F` (racemic) [1-151], the “control value (assessment criteria 0-10)” value was 8 (Control value 80-89%).
`COC(NC(=O)c1ccccc1F)c1ccc(-c2noc(C(F)(F)F)n2)cc1F` (racemic) [1-152] was tested, and the “control value (assessment criteria 0-10)” value was 8 (Control value 80-89%).
In the case of `COc1ccccc1C(=O)NC(OC)c1ccc(-c2noc(C(F)(F)F)n2)cc1F` (racemic) [1-154], the “control value (assessment criteria 0-10)” value was 8 (Control value 80-89%).
For `COC(NC(=O)c1cccnc1)c1ccc(-c2noc(C(F)(F)F)n2)cc1F` (stereo not shown) [1-155], the “control value (assessment criteria 0-10)” value was 8 (Control value 80-89%).
With `COC(NC(=O)c1ccncc1)c1ccc(-c2noc(C(F)(F)F)n2)cc1F` (stereo not shown) [1-156] the “control value (assessment criteria 0-10)” value was 8 (Control value 80-89%).
For `COC(NC(=O)C(Cl)Cl)c1ccc(-c2noc(C(F)(F)F)n2)cc1F` (stereo not shown) [1-157], the “control value (assessment criteria 0-10)” value was 8 (Control value 80-89%).
`COC(NC(=O)C(Cl)Cl)c1ccc(-c2noc(C(F)(F)F)n2)c(F)c1` (stereo not shown) [1-158] was tested, and the “control value (assessment criteria 0-10)” value was 8 (Control value 80-89%).
For `CCCC(=O)NC(OC)c1ccc(-c2noc(C(F)(F)F)n2)cc1` (stereo not shown) [Compound No. 1-13, N-(methoxy{4-[5-(trifluoromethyl)-1,2,4-oxazole-3-ylphenyl]methyl})butylamide], the “control value (assessment criteria 0-10)” value was 8 (Control value 80-89%).
